Data on two molecules can be found in publication PMC4627807, “Klotho Regulates 14-3-3ζ Monomerization and Binding to the ASK1 Signaling Complex in Response to Oxidative Stress” (PLoS ONE, 2015).

The chains behind the UniProt entries cited, without tags or fusion partners.
UniProt Q99683: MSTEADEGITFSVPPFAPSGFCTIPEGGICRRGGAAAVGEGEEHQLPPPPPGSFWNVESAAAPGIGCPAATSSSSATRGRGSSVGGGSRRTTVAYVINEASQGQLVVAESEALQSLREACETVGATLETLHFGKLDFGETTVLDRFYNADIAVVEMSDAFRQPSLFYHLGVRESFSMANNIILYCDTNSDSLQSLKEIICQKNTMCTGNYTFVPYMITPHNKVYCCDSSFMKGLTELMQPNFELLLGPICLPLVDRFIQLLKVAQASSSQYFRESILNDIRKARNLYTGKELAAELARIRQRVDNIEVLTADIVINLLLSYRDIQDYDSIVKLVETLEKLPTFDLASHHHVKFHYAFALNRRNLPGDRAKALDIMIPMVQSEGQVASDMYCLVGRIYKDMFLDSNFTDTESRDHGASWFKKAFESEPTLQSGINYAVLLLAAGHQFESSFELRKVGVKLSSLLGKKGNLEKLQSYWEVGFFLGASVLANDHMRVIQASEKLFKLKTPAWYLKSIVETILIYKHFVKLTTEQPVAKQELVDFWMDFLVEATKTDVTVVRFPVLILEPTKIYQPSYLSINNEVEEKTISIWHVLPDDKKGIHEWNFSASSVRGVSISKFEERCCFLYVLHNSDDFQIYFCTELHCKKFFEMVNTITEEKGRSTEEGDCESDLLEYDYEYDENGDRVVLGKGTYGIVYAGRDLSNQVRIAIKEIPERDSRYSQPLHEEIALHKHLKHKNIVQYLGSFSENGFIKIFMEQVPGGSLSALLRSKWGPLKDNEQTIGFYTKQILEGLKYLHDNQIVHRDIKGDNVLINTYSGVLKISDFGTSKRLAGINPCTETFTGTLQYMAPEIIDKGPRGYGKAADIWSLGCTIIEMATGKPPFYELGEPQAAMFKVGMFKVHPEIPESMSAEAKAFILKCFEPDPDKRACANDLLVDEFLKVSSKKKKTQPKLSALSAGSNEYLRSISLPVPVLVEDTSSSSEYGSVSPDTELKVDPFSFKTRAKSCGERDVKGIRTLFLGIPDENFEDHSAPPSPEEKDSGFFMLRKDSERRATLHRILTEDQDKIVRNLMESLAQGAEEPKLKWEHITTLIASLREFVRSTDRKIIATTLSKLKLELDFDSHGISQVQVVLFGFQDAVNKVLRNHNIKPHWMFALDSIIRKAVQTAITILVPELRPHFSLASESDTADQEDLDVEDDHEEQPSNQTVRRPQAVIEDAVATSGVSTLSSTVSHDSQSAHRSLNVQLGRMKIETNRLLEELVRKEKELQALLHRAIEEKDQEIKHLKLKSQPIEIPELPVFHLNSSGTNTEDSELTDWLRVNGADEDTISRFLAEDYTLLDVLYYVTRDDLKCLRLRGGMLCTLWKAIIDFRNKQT
UniProt P63104: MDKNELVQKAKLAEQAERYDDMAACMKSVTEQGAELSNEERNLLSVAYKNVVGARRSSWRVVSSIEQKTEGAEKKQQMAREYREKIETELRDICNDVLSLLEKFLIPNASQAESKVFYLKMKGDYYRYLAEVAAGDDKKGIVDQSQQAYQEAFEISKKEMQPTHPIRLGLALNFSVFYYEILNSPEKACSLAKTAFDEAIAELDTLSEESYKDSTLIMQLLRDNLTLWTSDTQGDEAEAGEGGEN

These are yes or no findings as the source states them, for the method shown. Binding seen in cells or lysates may run through a third protein. Some entries that bind do so weakly or less than the wild type.

Test [1] has as its target apoptosis signal-regulating kinase 1 (ASK1) (human (endogenous in HEK 293)) (UniProt Q99683). The test is described as follows: co-IP + other: immuno-capillary electrophoresis (iCE); complex co-precipitated with ASK1 antibody from HEK 293 lysate, eluted and separated by native pI (NanoPro CB1000), probed with antibodies to Trx, ASK1 and 14-3-3ζ; buffer-treated cells and cells pretreated with 200 pM Klotho before ROT.

Test [2] shares this target. As to the kind of experiment: co-IP + other: immuno-capillary electrophoresis (iCE); as a4, but cells treated with 5 μM ROT alone.
In test [3] the target is 14-3-3ζ (human (endogenous in HEK 293)) (UniProt P63104). The description is as above.
In test [4] the target is GST-tagged 14-3-3ζ wild type (Wt) (UniProt P63104). The test is described as follows: pull-down; lysates of HEK 293 cells transfected with GST-14-3-3ζ Wt or Dm adsorbed onto glutathione sepharose, binding buffer 20 mM Tris-Cl pH 7.5, 2 mM EDTA, 1 mM EGTA, 80 mM NaCl; endogenous Trx by Western blot; cells treated with buffer or secreted Klotho for 40 min.

With 14-3-3ζ (from UniProt P63104 1-245), the binding entry in test [1] is recorded as “binds”; in test [2] it was “no binding (condition: cells treated with 5 μM ROT)”.

B1: thioredoxin (Trx) (natural protein, human (endogenous in HEK 293), UniProt P10599 1-105, looked up)
chain: MVKQIESKTAFQEALDAAGDKLVVVDFSATWCGPCKMIKPFFHSLSEKYSNVIFLEVDVDDCQDVASECEVKCMPTFQFFKKGQKVGEFSGANKEKLEATINELV
notes: thioredoxin (Trx), endogenous in HEK 293 cells; active site cysteines named as Cys32/35; Detected by Western blot or iCE with a Trx antibody; source: endogenous, HEK 293 lysate
For the molecule B1, the binding result in test [3] and in test [4] was “binds” throughout.
